# These are yes or no findings as the source states them, for the method shown. In cells and extracts the contact can be indirect. Some binding calls cover weakened binding; strength is not graded here. Sequences can lack the tags named with a protein.
# Amino acid sequences for entries named in this document (tags omitted).
# UniProt P19474: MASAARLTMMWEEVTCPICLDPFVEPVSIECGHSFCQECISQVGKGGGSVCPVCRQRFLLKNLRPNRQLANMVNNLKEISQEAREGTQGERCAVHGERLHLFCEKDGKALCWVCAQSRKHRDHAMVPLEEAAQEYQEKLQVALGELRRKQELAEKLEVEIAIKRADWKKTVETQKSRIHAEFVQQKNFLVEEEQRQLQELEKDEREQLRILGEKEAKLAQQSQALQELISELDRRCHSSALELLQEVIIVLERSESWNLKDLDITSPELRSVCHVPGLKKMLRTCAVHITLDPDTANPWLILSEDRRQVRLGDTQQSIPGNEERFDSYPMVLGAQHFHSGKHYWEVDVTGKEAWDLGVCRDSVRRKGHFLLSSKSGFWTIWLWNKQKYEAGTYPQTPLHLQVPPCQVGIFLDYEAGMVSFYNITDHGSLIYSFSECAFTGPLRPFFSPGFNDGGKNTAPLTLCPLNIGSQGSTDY
# Molecular target: Myc-TRIM21 (overexpressed in HEK293T) (UniProt P19474)
# Test: co-IP; two tagged proteins overexpressed together in HEK293T, each in turn immunoprecipitated by its tag; lysate supernatant with beads at 4 °C overnight, five washes with lysis buffer, immunoblot
binder,measurement,value
"HA-MDM4 (overexpressed in HEK293T) (protein, UniProt O15151 1-490) MTSFSTSAQCSTSDSACRISPGQINQVRPKLPLLKILHAAGAQGEMFTVKEVMHYLGQYIMVKQLYDQQEQHMVYCGGDLLGELLGRQSFSVKDPSPLYDMLRKNLVTLATATTDAAQTLALAQDHSMDIPSQDQLKQSAEESSTSRKRTTEDDIPTLPTSEHKCIHSREDEDLIENLAQDETSRLDLGFEEWDVAGLPWWFLGNLRSNYTPRSNGSTDLQTNQDVGTAIVSDTTDDLWFLNESVSEQLGVGIKVEAADTEQTSEEVGKVSDKKVIEVGKNDDLEDSKSLSDDTDVEVTSEDEWQCTECKKFNSPSKRYCFRCWALRKDWYSDCSKLTHSLSTSDITAIPEKENEGNDVPDCRRTISAPVVRPKDAYIKKENSKLFDPCNSVEFLDLAHSSESQETISSMGEQLDNLSEQRTDTENMEDCQNLLKPCSLCEKRPRDGNIIHGRTGHLVTCFHCARRLKKAGASCPICKKEIQLVIKVFIA",binding,binds
